What all share (experiment): cleaved PARP positive nuclei fraction relative to DMSO control; melanoma cells; higher = more apoptosis
Settings in all cases: library dose: low library concentration; 72 h

Test [1] concerns 501Mel.
For test [2], the system named is A101D.
In test [3] the test system is A2058.
Test [4] relates to A375.
Test [5] relates to C32.
For test [6], the system named is CBRC013 (line from a melanoma biopsy).
Test [7] has as its system CBRC014 (line from a melanoma biopsy).
Test [8] deals with CBRC016 (line from a melanoma biopsy).
The subject of test [9] is CBRC017 (line from a melanoma biopsy).
Test [10] deals with CBRC034 (line from a melanoma biopsy).
The test system of test [11] is COLO792.
Test [12] concerns COLO800.
The subject of test [13] is COLO829.
Test [14] has as its system G361.
The test system of test [15] is IPC-298.
Test [16] concerns IST-MEL1.
Test [17] has as its system LB2518-MEL.
Test [18] relates to LOXIMVI.

This is one part of the list. Repeats are few or missing, and single values can be far off.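 The apoptosis fraction was the count of cleaved-PARP antibody-stained nuclei relative to all DNA-stained nuclei, imaged in 1,536-well plates. Screening doses were set so most cells survived, and baseline and induced cleaved-PARP levels vary greatly across cell lines.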

In the case of `Cn1cncc1[C@@](N)(c1ccc(Cl)cc1)c1ccc2c(c1)c(-c1cccc(Cl)c1)cc(=O)n2C` [tipifarnib] + O=C1NC(=O)/C(=C/c2ccc(-c3ccc(F)cc3O)o2)S1 [AS252424] (first compound 0.01 µM, partner dose 1 µM), the “cleaved PARP positive nuclei fraction” value in test [1] stood at 83.8%; in test [2], 104%; in test [3] it was 122%; in test [4], 176%; in [5], 66.7%; in test [6], 232%. Moreover, the “cleaved PARP positive nuclei fraction” value in test [7] came to 109%; in test [8], 80.4%; in test [9] it was 90.3%; in test [10] it was 106%; in test [11], 117%; in test [12] it was 130%. Also, the “cleaved PARP positive nuclei fraction” value in [13] came out at 168%; in test [14] it was 174%; in test [15], 40.1%; in test [16], 31.6%; in test [17] it was 104%; in test [18] it was 66.3%.
Regarding `O=C(Nc1cccc(Cl)c1)Nc1ncc(CCNc2ncnc3ccsc23)s1` + O=C(Nc1ccccc1)c1cc([N+](=O)[O-])ccc1Cl [GW9662] (first compound 0.0008 µM, partner dose 2 µM), the “cleaved PARP positive nuclei fraction” value in test [1] came out at 134%; in test [2], 172%; in [3], 99.8%; in [4] it was 127%; in [5] it was 220%; in test [6], 43.9%. Also, the “cleaved PARP positive nuclei fraction” value in [7] was found to be 99.3%; in test [8], 28.8%; in test [9] it was 154%; in test [10] it was 192%; in [11], 104%; in [12] it was 65.9%. Moreover, the “cleaved PARP positive nuclei fraction” value came to 110% in [13]; 116% in test [14]; 46.8% in test [15]; 89.1% in test [16]; 94.5% in [17]; 70% in [18].
In the case of `Cn1cncc1[C@@](N)(c1ccc(Cl)cc1)c1ccc2c(c1)c(-c1cccc(Cl)c1)cc(=O)n2C` [tipifarnib] + CCCCCCCCCCCC1=C(O)C(=O)C=C(O)C1=O [Embelin] (first compound 0.01 µM, partner dose 1.2 µM), the “cleaved PARP positive nuclei fraction” value in test [1] came out at 87.9%; in test [2] it was 114%; in test [3], 74%; in [4], 142%; in test [5], 44.2%; in test [6], 55%. The “cleaved PARP positive nuclei fraction” value in [7] was 95.1%; in test [8] it was 99.9%; in test [9], 87.6%; in test [10] it was 91.8%; in test [11] it was 81.2%; in test [12], 79.4%. In addition, the “cleaved PARP positive nuclei fraction” value was 177% in test [13]; 76.1% in [14]; 78.5% in [15]; 68% in test [16]; 314% in test [17]; 63.7% in test [18].
Take `C[C@]1(c2nc3c(C(N)=O)cccc3[nH]2)CCCN1` [Veliparib] + Oc1cc(-c2nc(-c3ccccc3)[nH]c2-c2ccncc2)ccc1Cl [L779450] (first compound 1.4 µM, partner dose 0.2 µM): the “cleaved PARP positive nuclei fraction” value in test [1] was 83.3%; in test [2], 159%; in test [3], 161%; in test [4], 92.2%; in [5], 149%; in test [6], 372%. For the same molecule, the “cleaved PARP positive nuclei fraction” value was determined as 94.7% in [7]; 25.5% in test [8]; 87.8% in test [9]; 1340% in test [10]; 88.4% in test [11]; 74.9% in test [12]. Besides, the “cleaved PARP positive nuclei fraction” value stood at 109% in [13]; 132% in [14]; 123% in test [15]; 238% in test [16]; 222% in [17]; 958% in test [18].

These data come from the supplement of paper PMC4604168 (melanoma cell lines).
